By UniProt entry, the sequences of proteins in these tests, tags left out.
UniProt P35222: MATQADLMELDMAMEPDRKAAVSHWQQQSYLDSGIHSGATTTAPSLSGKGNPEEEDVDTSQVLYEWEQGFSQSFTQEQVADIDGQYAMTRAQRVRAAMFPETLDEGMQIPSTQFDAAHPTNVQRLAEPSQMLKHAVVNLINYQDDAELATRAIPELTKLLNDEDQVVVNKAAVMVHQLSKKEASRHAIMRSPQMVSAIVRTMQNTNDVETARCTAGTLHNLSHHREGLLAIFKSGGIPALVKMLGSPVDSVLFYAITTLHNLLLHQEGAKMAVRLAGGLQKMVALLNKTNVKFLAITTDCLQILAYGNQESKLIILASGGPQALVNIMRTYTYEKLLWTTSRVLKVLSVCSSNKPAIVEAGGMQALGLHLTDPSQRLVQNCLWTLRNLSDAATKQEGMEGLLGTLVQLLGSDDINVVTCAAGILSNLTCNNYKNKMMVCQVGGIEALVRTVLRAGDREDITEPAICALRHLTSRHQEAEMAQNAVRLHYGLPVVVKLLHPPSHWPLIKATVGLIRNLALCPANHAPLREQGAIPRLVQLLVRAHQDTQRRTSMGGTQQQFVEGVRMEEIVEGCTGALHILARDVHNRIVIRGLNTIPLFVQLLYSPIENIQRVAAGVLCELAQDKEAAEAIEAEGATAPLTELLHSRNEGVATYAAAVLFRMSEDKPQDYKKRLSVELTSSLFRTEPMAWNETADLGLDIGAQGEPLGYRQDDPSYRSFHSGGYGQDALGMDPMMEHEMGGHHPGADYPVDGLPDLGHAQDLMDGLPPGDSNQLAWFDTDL

In article PMC6437151:

Biological target: T1, tagged wild-type FBXW2 (F-box and WD-repeat domain-containing 2) (UniProt Q9UKT8)
T1 sequence: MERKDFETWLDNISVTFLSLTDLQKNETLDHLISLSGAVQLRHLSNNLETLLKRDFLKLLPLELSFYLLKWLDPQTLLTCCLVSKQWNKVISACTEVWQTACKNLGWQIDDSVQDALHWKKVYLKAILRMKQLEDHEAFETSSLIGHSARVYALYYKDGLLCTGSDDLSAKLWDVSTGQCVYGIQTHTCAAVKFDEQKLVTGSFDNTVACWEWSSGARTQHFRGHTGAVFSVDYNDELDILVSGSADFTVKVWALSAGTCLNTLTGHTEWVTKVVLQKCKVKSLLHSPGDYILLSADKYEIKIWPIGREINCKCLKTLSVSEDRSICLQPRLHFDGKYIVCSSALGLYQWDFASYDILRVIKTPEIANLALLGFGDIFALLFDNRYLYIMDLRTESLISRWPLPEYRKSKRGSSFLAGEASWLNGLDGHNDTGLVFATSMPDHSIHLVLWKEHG
Assay: affinity purification with mass spectrometry; H1299 cells with ectopic expression of tagged wild-type FBXW2; 196 putative binding proteins

With “endogenous β-catenin (from UniProt P35222 1-781)” the binding was “binds”.

Results are given in words; binding and its absence hold for the method and conditions named. Binding seen in cells or lysates may run through a third protein. A yes stands for co-enrichment or nearness to the bait. Other partners may have been found. Where a sequence is shown, tags or fusion partners need not be part of it.
